Experimental data: US4921528A, “Substituted azolylmethyl-cyclopropyl-carbinol derivatives” (Bayer Aktiengesellschaft, priority 1984, dated 1990)
At least one structure is not confirmed: it was looked up by name or label, or the drawing left a doubt.

What was measured:
Type in all cases: in vivo
Cotton plants = assay: Inhibition of growth of cotton; details: sprayed until dripping wet; measured after 3 weeks; compared with prior-art compound (A)
Experimental: Inhibition of growth of cotton
(§1) Solvent: 30 parts by weight of dimethylformamide
Emulsifier: 1 part by weight of […] sorbitan monolaurate.
(§2) To produce a suitable preparation of active compound, 1 part by weight of active compound is mixed with the stated amounts of solvent and emulsifier and the mixture is made up to the desired concentration with water.
Cotton plants are grown in a greenhouse until the 5th secondary leaf has unfolded completely. In this stage, the plants are sprayed with the preparations of active compound until dripping wet. After 3 weeks, the additional growth of the plants is measured and the inhibition of growth in per cent of the additional growth of the control plants is calculated. 100% inhibition of growth means that growth has stopped and 0% denotes a growth corresponding to that of the control plants.

Soya bean plants = assay: Inhibition of growth of soya beans; details: sprayed until dripping wet; measured after 3 weeks; compared with prior-art compound (D)
Experimental: Inhibition of growth of soya beans
as §1
(§3) Emulsifier: 1 part by weight of polyoxyethylene sorbitan monolaurate.
as §2
(§4) Soya bean plants are grown in a greenhouse until the first secondary leaf has unfolded completely. In this stage, the plants are sprayed with the preparations of active compound until dripping wet. After 3 weeks, the additional growth is measured on all the plants and the inhibition of growth in per cent of the additional growth of the control plants is calculated. 100% inhibition of growth means that growth has stopped and 0% denotes a growth corresponding to that of the control plants.

Barley plants = assay: Inhibition of growth of barley; details: sprayed until dripping wet; measured after 3 weeks; compared with prior-art compounds (A), (B), (C) and (D)
Experimental: Inhibition of growth of barley
as §1, §3, §2
as §4, with “Barley plants” for “Soya bean plants”, “greenhouse to” for “greenhouse until”, “the 2-leaf stage.” for “the first secondary leaf has unfolded completely.”, “all” for “all the”

CCS(=O)(=O)C1(C(O)(Cn2cncn2)c2ccc(Cl)cc2)CC1 (stereo not drawn) [Compound I-4, 1-(4-chlorophenyl)[1-(ethylsulphonyl)-1-cyclopropyl]-2-(1,2,4-triazol-1-yl)1-ethanol]
inhibition of growth of cotton (per cent of additional growth of control plants) (Cotton plants): more pronounced inhibition of growth than the compound (A) | inhibition of growth of soya beans (per cent of additional growth of control plants) (Soya bean plants): more pronounced inhibition of growth than the compound (D) | inhibition of growth of barley (per cent of additional growth of control plants) (Barley plants): more pronounced inhibition of growth than the compounds (A), (B), (C) and (D)
